Reference: article PMC6988309, “Preclinical efficacy for a novel tyrosine kinase inhibitor, ArQule 531 against acute myeloid leukemia” (Journal of Hematology & Oncology, 2020)
Several values for one entry are separate records, joined by “and”; a condition that tells them apart may be missing. Equal entries are not always repeated.

Key:
[1] = system: Ba/F3 FLT3-ITD pMIT SYK-TEL

CO[C@@H]1[C@H](N(C)C(=O)c2ccccc2)C[C@H]2O[C@]1(C)n1c3ccccc3c3c4c(c5c6ccccc6n2c5c31)C(=O)NC4 [Midostaurin]
IC50 [1]: 0.404 µM and 0.23 µM and 0.281 µM | IC50 (Ba/F3 FLT3-ITD Parental): 0.0762 µM
